This note sets out measurements from patent publication US20240010714A1 (MBRACE THERAPEUTICS, published 2024).

The chains behind the UniProt entries cited, without tags or fusion partners. Residues count along the entry.
UniProt G3I8R9, residues 19-654: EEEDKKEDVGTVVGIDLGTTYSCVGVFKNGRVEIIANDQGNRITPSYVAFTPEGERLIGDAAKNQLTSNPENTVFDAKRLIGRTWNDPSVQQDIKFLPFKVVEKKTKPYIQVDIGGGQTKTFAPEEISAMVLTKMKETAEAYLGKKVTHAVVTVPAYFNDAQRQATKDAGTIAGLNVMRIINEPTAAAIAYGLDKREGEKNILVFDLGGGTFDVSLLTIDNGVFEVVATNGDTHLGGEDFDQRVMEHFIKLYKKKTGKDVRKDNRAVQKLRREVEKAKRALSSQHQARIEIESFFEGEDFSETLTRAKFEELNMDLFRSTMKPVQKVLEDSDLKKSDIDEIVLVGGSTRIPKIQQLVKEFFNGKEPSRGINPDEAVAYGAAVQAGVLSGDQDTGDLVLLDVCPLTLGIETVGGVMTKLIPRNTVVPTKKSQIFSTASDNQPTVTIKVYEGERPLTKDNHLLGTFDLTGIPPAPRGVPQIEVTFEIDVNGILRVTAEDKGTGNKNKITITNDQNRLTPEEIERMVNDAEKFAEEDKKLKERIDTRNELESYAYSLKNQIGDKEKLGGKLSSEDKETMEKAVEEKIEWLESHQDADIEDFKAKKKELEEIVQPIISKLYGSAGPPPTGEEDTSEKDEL

These are yes or no findings as the source states them, for the method shown. In cells and extracts the contact can be indirect. Some entries that bind do so weakly or less than the wild type.

In this experiment the target is native GRP78 of CHO cells (endoplasmic reticulum protein) (Chinese hamster (CHO cells)) (UniProt G3I8R9). In words: co-purification from CHO supernatant, SDS-PAGE (extra band between 70-80 kDa).

B1: anti-GRP78 antibody clone F6 (antibody, IgG1, V domains shown)
VH: QVQLQQSGPGLVKPPQTLSLTCAISGDSVSSNSAAWNWIRQSPSRGLEWLGRTYYRSKWYNDYAVSVKSRITINPDTSKNQFSLQLNSVTPEDTAVYYCARDPYYYDSSGYYYFDAFDIWGQGTMVTVSS
VL: SYELTQPHSVSVAPGQTARITCGGDNIGSKSVHWYQQRPGQAPVLVVYDDSDRPSGIPERFSGSNSENTATLTISGVEAGDEADYYCQVWDSTSHHVVFGGGTKLTVL
notes: Fully human mAb formatted as full-length IgG1; also called F6 mAb; Anti-GRP78 (F6)
For B1, the binding entry is on record as “binds”.

B2: anti-GRP78 antibody clone B4 (antibody, IgG1, V domains shown)
VH: QVRLQESGPGLVKPSQTLSLTCTVSGGSISSGGYYWSWIRQHPGKGLEWIGYIYYSGSTYYNPSLESRVTISVDTSKNQFSLKLSSVTAADTAVYYCARYSSIDAFEIWGQGTMVTVSS
VL: SYVLTQPPSVSVAPGKTATITCGGDDIGSKSVHWYQQKPGQAPVLVVYDDGDRPSGIPERFSGSNSGNTATLAISRVEAGDEADYYCQVWDSSSDQYVFGSGTKLTVL
notes: Fully human mAb formatted as full-length IgG1; also called B4 mAb
With B2, the binding entry is “binds”.
